Data on one sequence can be found in PMC4081103.

For at least one entry, the source does not settle the construct or the ends of the probe. For some of these results: A weaker result is weaker than the reference pair of the same experiment. For some of these results: At least one verdict rests on a figure or table, not on a statement of the authors.

Series [1] deals with RPA heterotrimer (RPA1, RPA2, RPA3). Put plainly: EMSA. To be noted: no PAR, PBS, 20 ul, 20-23 C (room temperature), 30 min, 1% agarose gel in 0.5x TBE at 4 C, pH not stated, recombinant protein, label: 5' Cy5.5, single-stranded DNA. A general note: A gel shift assay detects complexes by their altered migration in electrophoresis.
For series [2] the test system is unchanged. Put plainly: competition with a labelled probe. To be noted: free DNA increased, PBS, 20 ul, 20-23 C (room temperature), 30 min, 1% agarose gel in 0.5x TBE at 4 C, pH not stated, recombinant protein, label: 5' Cy5.5, single-stranded DNA.

On to “TTTTTTTTTTTTTTTTTTTTTTTTTTTTTTTTTTTTTTTTTTTTTTTTTT [Cy5.5-oligodT 50-mer]”, for which the binding result in series [1] (1.7 nM RPA, 1 nM DNA) was “binds”; in series [1] (7 nM RPA pre-incubated with 2.5 nM DNA), “binds”; in series [2] (7 nM RPA pre-incubated with 2.5 nM DNA, then high PAR (lanes 8-11, 64-192 ng)), “binds more weakly”; in series [2] (higher PAR (lanes 5-11) mixed with DNA before RPA) it was “binds more weakly”.
